# Test results taken from patent US20260258156A1.
# The chains behind the UniProt entries cited, without tags or fusion partners. Where a name states a change or a piece, a line headed by the entry shows the natural chain unless it says otherwise.
# UniProt Q9Y337: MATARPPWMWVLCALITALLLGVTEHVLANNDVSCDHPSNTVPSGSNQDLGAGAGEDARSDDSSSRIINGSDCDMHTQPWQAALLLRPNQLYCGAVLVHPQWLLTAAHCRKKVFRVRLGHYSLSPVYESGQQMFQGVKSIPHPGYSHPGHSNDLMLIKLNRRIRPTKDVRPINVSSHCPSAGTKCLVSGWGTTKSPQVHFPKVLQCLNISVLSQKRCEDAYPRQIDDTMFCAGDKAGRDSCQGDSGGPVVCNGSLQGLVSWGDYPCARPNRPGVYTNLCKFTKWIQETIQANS
# B1: KLK5/KLK7-Dual-Ab4 (antibody, V domains shown)
# VH: QLQLQESGPGLVKPSETLSLTCTVSGGSISSLDYYWVWIRQPPGKGLEWIGSIDYSGDTYYNPSLKSRVTISVDTSKNQFSLKLSSVTAADTAVYYCARGRPLGYGARHYYYAMDVWGQGTTVTVSS
# VL: DIQMTQSPSSLSASVGDRVTITCRASQSISSYLNWYQQKPGKAPKLLIYSASSLQSGVPSRFSGSGSGTDFTLTISSLQPEDFATYYCQQSPYFPPLTFGGGTKVEIK
# B2: KLK5/KLK7-Dual-Ab2 (antibody, V domains shown)
# VH: QLQLQESGPGLVKPSETLSLTCTVSGGSISSDDYYWVWIRQPPGKGLEWIGSIDYFASTYYNPSLKSRVTISVDTSKNQFSLKLSSVTAADTAVYYCARGRPLGYGARHDYYGMDVWGQGTTVTVSS
# VL: DIQMTQSPSSLSASVGDRVTITCRASQSISSYLNWYQQKPGKAPKLLIYSASSLQSGVPSRFSGSGSGTDFTLTISSLQPEDFATYYCQQSPYFPPLTFGGGTKVEIK
# B3: KLK5/KLK7-Dual-Ab1 (antibody, V domains shown)
# VH: QLQLQESGPGLVKPSETLSLTCTVSGGSISSSDYYWGWIRQPPGKGLEWIGSIYYSGSTYYNPSLKSRVTISVDTSKNQFSLKLSSVTAADTAVYYCARGRPLGYGARHYYYGMDVWGQGTTVTVSS
# VL: DIQMTQSPSSLSASVGDRVTITCRASQSISSYLNWYQQKPGKAPKLLIYSASSLQSGVPSRFSGSGSGTDFTLTISSLQPEDFATYYCQQSPPFPPLTFGGGTKVEIK
# B4: KLK5/KLK7-Dual-Ab3 (antibody, V domains shown)
# VH: QLQLQESGPGLVKPSETLSLTCTVSGGSISSDDYYWVWIRQPPGKGLEWIGSIDYYASTYYSPSLKSRVTISVDTSKNQFSLKLSSVTAADTAVYYCARGRPLGYGAKHYYYGMDVWGQGTTVTVSS
# VL: DIQMTQSPSSLSASVGDRVTITCRASQSISSYLNWYQQKPGKAPKLLIYSASSLQSGVPSRFSGSGSGTDFTLTISSLQPEDFATYYCQQSPYFPPLTFGGGTKVEIK
# Key:
# [1] = biological target: human KLK5, active form (human) (UniProt Q9Y337); assay: SPR relative response curves
# [2] = biological target: human KLK5, active form (human) (UniProt Q9Y337); assay: SPR, antibody coupled to CM5 chip
# [3] = biological target: human KLK5, active form (human) (UniProt Q9Y337); assay: SPR (Biacore), antibody captured on Protein A chip
# [4] = biological target: human KLK5, active form (human) (UniProt Q9Y337); assay: SPR (Biacore), antibody captured on Protein A chip, KLK at 0.156-40 nM
# [5] = biological target: human KLK5, active form (human) (UniProt Q9Y337); assay: SPR, antibody captured on Protein A chip, 20 nM huKLK5 without inhibitor
# [6] = biological target: human KLK5, active form (human) (UniProt Q9Y337); assay: SPR sandwich binning, KLK5/7-Dual-Ab4 coupled to CM5 chip, huKLK5 flowed over
binder,measurement,setting,value
B1,binding,[1],binds
same,binding,[2],binds
same,binding,[3],binds
same,binding,[4],binds
same,binding,[5],binds
same,binding,[6],binds
B2,binding,[3],binds
same,binding,[5],binds
B3,binding,[3],binds
B4,binding,[3],binds

# These are yes or no findings as the source states them, for the method shown. Binding calls can cover weak binding; strength is not graded here.
